Measurements: publication PMC9858354
These are yes or no findings as the source states them, for the method shown.

Protein sequences, listed by entry. Tags and fused reporters are not part of them. Residues count along the entry.
UniProt P13500, residues 24-99: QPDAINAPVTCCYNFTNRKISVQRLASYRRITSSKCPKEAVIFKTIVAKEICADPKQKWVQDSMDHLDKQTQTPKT
UniProt P13501, residues 24-91: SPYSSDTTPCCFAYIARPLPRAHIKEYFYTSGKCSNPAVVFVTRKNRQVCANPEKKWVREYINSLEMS
UniProt P10148, residues 24-148: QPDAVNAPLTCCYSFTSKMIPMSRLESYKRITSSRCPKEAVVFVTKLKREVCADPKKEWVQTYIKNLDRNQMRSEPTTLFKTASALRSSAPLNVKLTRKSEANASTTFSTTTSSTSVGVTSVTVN
UniProt P80098, residues 24-99: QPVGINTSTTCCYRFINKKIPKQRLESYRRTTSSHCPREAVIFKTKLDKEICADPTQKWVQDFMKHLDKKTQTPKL
UniProt P80075, residues 24-99: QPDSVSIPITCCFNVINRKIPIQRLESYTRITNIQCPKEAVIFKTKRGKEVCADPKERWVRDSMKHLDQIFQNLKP
UniProt Q99731, residues 22-98: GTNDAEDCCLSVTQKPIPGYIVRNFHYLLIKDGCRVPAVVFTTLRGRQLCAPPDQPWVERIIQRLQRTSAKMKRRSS
UniProt O00585, residues 24-134: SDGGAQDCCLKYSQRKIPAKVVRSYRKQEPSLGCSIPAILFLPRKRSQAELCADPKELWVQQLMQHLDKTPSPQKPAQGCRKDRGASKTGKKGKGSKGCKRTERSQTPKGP

These substances were tested against T1, human C-C motif chemokine receptor-like 2 (CCRL2) isoform b, on HEK-huCCRL2 cells (human) (UniProt O00421) (assay: SPR; live-cell SPR microscopy (SPRm 200); HEK-huCCRL2 cells seeded on collagen-coated gold slides; analyte injected at 150 ul/min, contact 3 min, dissociation 5 min; running buffer PBS + 0.1% BSA; chemerin 10-400 nM; 1:1 binding model; n = 3; only the binder purified).
T1 sequence: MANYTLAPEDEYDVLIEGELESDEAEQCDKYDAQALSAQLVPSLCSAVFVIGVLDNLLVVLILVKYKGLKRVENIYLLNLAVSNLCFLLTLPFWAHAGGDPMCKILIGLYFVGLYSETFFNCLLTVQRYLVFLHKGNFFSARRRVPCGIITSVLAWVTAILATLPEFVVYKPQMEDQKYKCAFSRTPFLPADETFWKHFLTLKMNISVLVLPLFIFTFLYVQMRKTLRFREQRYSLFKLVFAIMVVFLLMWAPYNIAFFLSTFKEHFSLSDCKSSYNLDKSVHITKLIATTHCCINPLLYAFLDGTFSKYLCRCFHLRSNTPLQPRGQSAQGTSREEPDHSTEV

Row | Substance | binding
1 | label-free human CCL2 (from UniProt P13500 24-99) (ligand) | no binding
2 | label-free human CCL5 (from UniProt P13501 24-91) (ligand) | no binding

The substances below were run against T2, mouse C-C motif chemokine receptor-like 2 (CCRL2) isoform b, on HEK-muCCRL2 cells (mouse) (UniProt O35457) (assay: flow cytometry on cells; serially diluted biotin-labeled ligand on HEK-huCCRL2, HEK-muCCRL2 or parental HEK cells (2x10^4 cells/well, 384-well), PBS + 0.1% BSA, 4°C 45 min, detected with RRX-streptavidin; MFI normalized to parental HEK cell binding; EC50 from four-parameter fit; only the binder purified).
T2 sequence: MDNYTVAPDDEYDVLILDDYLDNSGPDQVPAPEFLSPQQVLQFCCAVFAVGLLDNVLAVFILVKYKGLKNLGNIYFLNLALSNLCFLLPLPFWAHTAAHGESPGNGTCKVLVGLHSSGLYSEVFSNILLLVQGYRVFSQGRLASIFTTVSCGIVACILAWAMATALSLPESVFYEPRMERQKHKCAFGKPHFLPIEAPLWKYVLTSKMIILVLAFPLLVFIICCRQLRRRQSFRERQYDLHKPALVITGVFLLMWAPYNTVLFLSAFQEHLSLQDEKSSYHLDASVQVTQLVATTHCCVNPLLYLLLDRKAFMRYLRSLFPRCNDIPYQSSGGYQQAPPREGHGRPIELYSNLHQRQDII

Row | Substance | binding
3 | biotin-labeled murine CCL2 (from UniProt P10148 24-148) (ligand) | no binding
4 | biotin-labeled murine CCL7 (from UniProt Q03366 24-97) (ligand) | no binding

These substances were tested against T1, human C-C motif chemokine receptor-like 2 (CCRL2) isoform b, on HEK-huCCRL2 cells (human) in the same assay as above.

Row | Substance | binding
5 | biotin-labeled human CCL2 (from UniProt P13500 24-99) (ligand) | no binding
6 | biotin-labeled human CCL5 (from UniProt P13501 24-91) (ligand) | no binding
7 | biotin-labeled human CCL7 (from UniProt P80098 24-99) (ligand) | no binding
8 | biotin-labeled human CCL8 (from UniProt P80075 24-99) (ligand) | no binding
9 | biotin-labeled human CCL19 (from UniProt Q99731 22-98) (ligand) | no binding
10 | biotin-labeled human CCL21 (from UniProt O00585 24-134) (ligand) | no binding
